Measurements from publication PMC9405969.
No constants are given. Whether binding was seen depends on the method and setting. In cells and extracts the contact can be indirect. Some entries that bind do so weakly or less than the wild type.

The chains behind the UniProt entries cited, without tags or fusion partners. Where a name states a change or a piece, a line headed by the entry shows the natural chain unless it says otherwise.
UniProt Q07666: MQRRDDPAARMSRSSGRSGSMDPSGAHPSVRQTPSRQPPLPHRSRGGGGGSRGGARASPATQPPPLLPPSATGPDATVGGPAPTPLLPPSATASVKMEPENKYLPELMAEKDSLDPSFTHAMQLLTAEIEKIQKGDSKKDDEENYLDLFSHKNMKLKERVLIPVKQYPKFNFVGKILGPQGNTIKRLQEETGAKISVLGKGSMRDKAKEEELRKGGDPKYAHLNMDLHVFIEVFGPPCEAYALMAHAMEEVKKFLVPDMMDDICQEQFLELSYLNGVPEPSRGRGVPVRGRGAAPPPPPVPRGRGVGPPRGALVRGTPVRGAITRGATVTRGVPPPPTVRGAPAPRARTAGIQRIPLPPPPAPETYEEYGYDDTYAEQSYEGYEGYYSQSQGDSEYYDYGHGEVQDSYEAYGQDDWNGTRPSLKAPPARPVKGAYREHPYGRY
UniProt P09874: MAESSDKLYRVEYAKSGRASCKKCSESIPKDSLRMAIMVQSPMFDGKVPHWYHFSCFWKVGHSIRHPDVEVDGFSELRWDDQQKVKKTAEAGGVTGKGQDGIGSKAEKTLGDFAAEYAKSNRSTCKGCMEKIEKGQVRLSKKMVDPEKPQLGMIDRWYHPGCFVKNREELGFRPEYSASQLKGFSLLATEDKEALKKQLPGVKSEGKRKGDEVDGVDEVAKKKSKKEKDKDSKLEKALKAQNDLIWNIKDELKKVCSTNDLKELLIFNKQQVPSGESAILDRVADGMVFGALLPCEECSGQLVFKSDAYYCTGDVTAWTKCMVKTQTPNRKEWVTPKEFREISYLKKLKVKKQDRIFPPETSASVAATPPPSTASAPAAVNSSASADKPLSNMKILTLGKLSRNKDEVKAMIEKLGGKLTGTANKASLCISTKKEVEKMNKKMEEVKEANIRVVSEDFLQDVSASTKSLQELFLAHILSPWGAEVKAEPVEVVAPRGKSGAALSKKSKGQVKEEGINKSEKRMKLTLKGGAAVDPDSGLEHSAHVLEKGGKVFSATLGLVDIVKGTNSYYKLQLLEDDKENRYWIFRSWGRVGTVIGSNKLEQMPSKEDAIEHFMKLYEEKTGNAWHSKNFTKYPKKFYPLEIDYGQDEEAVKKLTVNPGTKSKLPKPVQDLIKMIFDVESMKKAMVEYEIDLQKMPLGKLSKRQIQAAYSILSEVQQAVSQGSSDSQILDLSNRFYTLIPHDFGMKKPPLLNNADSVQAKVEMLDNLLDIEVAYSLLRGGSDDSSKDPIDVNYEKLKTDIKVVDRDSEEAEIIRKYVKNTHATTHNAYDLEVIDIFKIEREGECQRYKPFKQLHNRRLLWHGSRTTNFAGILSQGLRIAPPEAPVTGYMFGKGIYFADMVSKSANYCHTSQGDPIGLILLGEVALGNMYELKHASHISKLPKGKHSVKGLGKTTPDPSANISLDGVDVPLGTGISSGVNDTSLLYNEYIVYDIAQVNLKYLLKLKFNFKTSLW

Assays:
[1] = target: GFP-Sam68 S388A/S390A (human) (UniProt Q07666); assay: co-IP; HEK293T whole-cell lysates expressing GFP-Sam68 wild type or mutants; IP with anti-GFP, immunoblot for endogenous partners; cells treated or not with NCS 500 ng/mL and collected at different time points
[2] = target: GFP-Sam68 wild type (Src-associated in mitosis of 68 KDa protein) (human) (UniProt Q07666); assay: as above

- binding [1]: binds
- binding [2]: binds
Substance: endogenous PARP1 (HEK293T cells) (from UniProt P09874 1-1014) (enzyme)
